# Source: PubChem BioAssay AID540256 (National Center for Advancing Translational Sciences (NCATS), 2011)
# The campaign covered roughly 300,000 compounds. About 3,700 (1.2%) were called active. The shares of active, inactive and inconclusive entries below differ from those in the screen. Calls follow the shape of the full dose curve; tested in HEK293 cells. Potencies of inconclusive entries are doubtful fits and often do not repeat.
# Assay: qHTS for Inhibitors of binding or entry into cells for Lassa Virus; also: nearly all actives have a fitted effect of over 50% in size
# Details: Lassa virus pseudotype entry inhibition, cell reporter; series mostly up to 37.9 µM
# Potency is read from the fitted curve at half-maximal effect.
row,SMILES,Potency
1,CC1(C)Cc2c(cnn2-c2ccc(F)cc2)C(NC(=O)c2ccoc2)C1 (centres undefined),"inconclusive: 1.26 µM [inhibitor, partial curve, poor fit]"
2,CCOC(=O)c1ccc(N2C(=O)c3[nH]nc(-c4ccc(C)cc4)c3C2c2cccs2)cc1 (centres undefined),"inconclusive: 10 µM [inhibitor, partial curve, poor fit]"
3,CCNC(=O)COC(=O)CNC(=O)c1cc(Cl)cc([N+](=O)[O-])c1,"inconclusive: 3.98 µM [inhibitor, partial curve, poor fit]"
4,O=C(NCc1ccco1)C1CC(c2ccccc2O)=NO1 (centres undefined),"inconclusive: 5.62 µM [inhibitor, full curve, poor fit]"
5,Cc1ccccc1-c1nnc(SCC(=O)Nc2cccnc2Cl)o1,active: 2 µM
6,CCOC(=O)C1C(c2cccnc2)NC(=O)NC1(O)C(F)(F)F (centres undefined),"inconclusive: 35.5 µM [activator, single point]"
7,Cc1ccc(-c2[nH]ncc2CN2CCN(C(=O)c3cccs3)CC2)cc1C,"inconclusive: 20 µM [inhibitor, partial curve, poor fit]"
8,COc1ccc(C(=O)NCC(c2ccco2)S(=O)(=O)c2ccc(F)cc2)cc1 (centres undefined),"inconclusive: 1.12 µM [inhibitor, full curve, poor fit]"
9,Cc1ccc(C)c(Cn2nnc3c(=O)[nH]c(C4CCCN(C(=O)c5cccs5)C4)nc32)c1 (centres undefined),"inconclusive: 35.5 µM [inhibitor, partial curve, poor fit]"
10,Cc1onc(-c2c(Cl)cccc2Cl)c1C(=O)N1C(C)CCCC1C (centres undefined),inactive
11,Cc1ccc(C)c(N2CCN(C(=O)CN3C(=O)COc4ccc(S(=O)(=O)N5CCCC5)cc43)CC2)c1,inactive
12,CCCCCCN(C(=O)CCCCCN1C(=O)NC(c2ccc(-c3ccccc3)cc2)C(C(=O)OCc2ccccc2)=C1C)C(C(=O)NCCCC)c1ccc(O)cc1 (centres undefined),"inconclusive: 2.31 µM [inhibitor, full curve, poor fit]"
13,CCc1cccc(NC(=O)CN(c2ccc(C)c(C)c2)S(=O)(=O)c2ccsc2C(=O)OC)c1,"inconclusive: 35.5 µM [inhibitor, single point]"
14,Cn1c(=O)c(C(=O)Nc2ccccn2)c(O)c2ccccc21,"inconclusive: 29.1 µM [inhibitor, single point]"
15,CCCC(=O)Nc1cc2nn(-c3ccccc3)nc2cc1C,"inconclusive: 11.2 µM [activator, partial curve, poor fit]"
16,Cc1cc(C(C)(C)C)oc1C(=O)N(CC(=O)NC1CCCC1)c1c(C)cccc1C,"inconclusive: 29.1 µM [inhibitor, single point]"
17,CCN(Cc1ccccc1)C(=O)c1c[nH]c2ccc(S(=O)(=O)N(C)CCC#N)cc2c1=O,"inconclusive: 8.2 µM [inhibitor, partial curve]"
18,Cc1ccc(C)c(Cn2c(=O)n(CCCCC(=O)NCc3ccc4c(c3)OCO4)c(=O)c3ccccc32)c1,inactive
19,CC(=O)N(c1ccccc1)c1nc(/C=C/C(=O)O)cs1,"inconclusive: 35.5 µM [inhibitor, single point]"
20,COc1cc2[nH]c(=O)n(CCCC(=O)N3CC=C(c4ccccc4)CC3)c(=O)c2cc1OC,"inconclusive: 15.8 µM [inhibitor, single point]"
21,CCCCn1cc(S(=O)(=O)c2cc(C)ccc2C)c(=O)c2cc(F)c(N3CCC(C)CC3)cc21,"inconclusive: 35.5 µM [activator, single point]"
22,Cc1nc2c(Br)cc(Br)cc2c(=O)n1-c1ccccc1NC1OCC(O)C(O)C1O (centres undefined),inactive

# Random excerpt: 2 records from the list
row,SMILES,Potency
5,Cc1ccccc1-c1nnc(SCC(=O)Nc2cccnc2Cl)o1,active: 2 µM
21,CCCCn1cc(S(=O)(=O)c2cc(C)ccc2C)c(=O)c2cc(F)c(N3CCC(C)CC3)cc21,"inconclusive: 35.5 µM [activator, single point]"

# Additional entries

row,SMILES,Potency
1,Cc1ccc(NC2=CC(=O)CC(c3ccccc3)C2)cc1 (centres undefined),"inconclusive: 0.794 µM [inhibitor, full curve, poor fit]"
2,COc1cc(NCc2ccccc2O)c2ncccc2c1,"inconclusive: 35.5 µM [inhibitor, single point]"
3,CC1CC(C)CN(S(=O)(=O)c2ccc3c(c2)CCN3C(=O)CCC(=O)O)C1 (centres undefined),"inconclusive: 6.31 µM [activator, partial curve, poor fit]"
4,O=C(CSc1nc(Nc2ccccc2)nc(N2CCOCC2)n1)Nc1ccccc1Cl,active: 4.61 µM
5,Cc1nn(CC(=O)Nc2ccccn2)c(C)c1Br,"inconclusive: 7.31 µM [inhibitor, single point]"
6,CSCC(=O)N1CCCC(CNC(=O)c2ccc(-c3ccccc3)cc2)C1 (centres undefined),inactive
7,CC(C)(C)c1ccc(C(=O)NCCOc2ccccc2F)cc1,"inconclusive: 6.31 µM [inhibitor, full curve]"
8,OCCCNc1nc(-c2ccc(Cl)cc2)nnc1-c1ccc(Br)cc1,"inconclusive: 16.4 µM [inhibitor, single point]"
9,Cc1cc(N2CCCC2=O)cc(C)c1CN1C(=O)c2ccccc2C1=O,inactive
10,CCSc1ncc(Cl)c(C(=O)Nc2nc3ccc(S(C)(=O)=O)cc3s2)n1,inactive
11,Cc1ccc(C(C)C)c(OCc2nn(CC(=O)c3ccc(OC(F)F)cc3)c3[n+]2CCCCC3)c1,"inconclusive: 12.6 µM [inhibitor, partial curve, poor fit]"
12,CCCN1CCN(c2nnc(-n3cccc3C(=O)Nc3cc(Cl)ccc3C)s2)CC1,inactive
13,c1ccc(CCNc2ccc3c(c2)Cc2ccccc2-3)nc1,"inconclusive: 11.2 µM [inhibitor, partial curve, poor fit]"
14,CC(C)CCN1CCC(n2nccc2NC(=O)c2ccc3c(c2)OCO3)CC1,"inconclusive: 14.1 µM [activator, partial curve, poor fit]"
15,Oc1ccccc1-c1n[nH]c(-c2ccccc2O)n1,"inconclusive: 35.5 µM [inhibitor, single point]"
16,Cc1sc2ncnc(N3CCC(C(=O)Nc4nc(-c5ccc(F)cc5)cs4)CC3)c2c1C,"inconclusive: 14.1 µM [inhibitor, partial curve, poor fit]"
17,CCOC(=O)C1=C(CN2CCN(C(=O)OCC)CC2)NC(=O)NC1c1ccc2c(c1)OCO2 (centres undefined),"inconclusive: 2.51 µM [inhibitor, full curve]"
18,Cc1cc(NC(=O)CCn2c(=O)c3cccn3c3cccnc32)ccc1Br,inactive
19,CN(CCCN1CCCCC1)C(=O)c1cc(COc2ccc(F)cc2F)on1,"inconclusive: 1.12 µM [activator, full curve, poor fit]"
20,Cc1ccc(S(=O)(=O)NNC(=O)c2cc(C)c(C)cc2N)cc1,inactive
21,CCOC(=O)c1[nH]cnc1C(=O)Nc1cccc(OC)c1,"inconclusive: 22.4 µM [inhibitor, partial curve, poor fit]"
22,Cc1ccccc1CCNC(=O)c1ccc2c(c1)nc1n2CCOC1,"inconclusive: 0.562 µM [activator, full curve, poor fit]"

# Ordered by SMILES length (falling): some entries from above
row,SMILES,Potency
13,CCc1cccc(NC(=O)CN(c2ccc(C)c(C)c2)S(=O)(=O)c2ccsc2C(=O)OC)c1,"inconclusive: 35.5 µM [inhibitor, single point]"
12,CCCN1CCN(c2nnc(-n3cccc3C(=O)Nc3cc(Cl)ccc3C)s2)CC1,inactive
6,CCOC(=O)C1C(c2cccnc2)NC(=O)NC1(O)C(F)(F)F (centres undefined),"inconclusive: 35.5 µM [activator, single point]"

# Later entries.

row,SMILES,Potency
1,CCOC(=O)c1ccccc1NC(=O)c1cc(S(=O)(=O)N2CCOCC2)ccc1F,"inconclusive: 22.4 µM [inhibitor, partial curve, poor fit]"
2,COc1cc(/C=N/NC(=O)C(Cc2c[nH]c3ccccc23)NC(=O)OCC(C)C)cc([N+](=O)[O-])c1O (centres undefined),"inconclusive: 3.66 µM [inhibitor, full curve]"
3,O=C(NCCCN1CCCC1=O)c1cccc(S(=O)(=O)Nc2ccc(F)cc2)c1,inactive
4,O=C(NCC1CCCO1)c1nn2c(c1Cl)NC(c1ccc(F)cc1)CC2C(F)(F)F (centres undefined),"inconclusive: 29.1 µM [inhibitor, single point]"
5,CCCn1c(CCC(=O)Nc2cc(C(=O)OC)cc(C(=O)OC)c2)nc2cccnc21,inactive
6,COCCCNC(=O)/C(C#N)=C/c1c(N2CCN(c3cccc(Cl)c3)CC2)nc2c(C)cccn2c1=O,"inconclusive: 12.6 µM [inhibitor, partial curve, poor fit]"
7,COc1ccc(C2(C)NC(=O)N(CC(=O)Nc3ccc(-c4nc5ccc(C)cc5s4)cc3)C2=O)cc1 (centres undefined),"inconclusive: 31.6 µM [inhibitor, single point]"
8,CCOc1ccc2nc(SCC(=O)Nc3ccc(F)cc3)nc(-c3ccccc3)c2c1,inactive
9,Cc1ccc(Cn2nnc3c(=O)[nH]c(C4CCCN(C(=O)Nc5ccc(F)cc5F)C4)nc32)cc1 (centres undefined),inactive
10,C[N+](C)(C)CC1CCCc2ccccc2C1=O (centres undefined),"inconclusive: 12.6 µM [inhibitor, partial curve, poor fit]"
11,Nc1nn2cc(-c3ccccc3)nc2c2ccccc12,"inconclusive: 15.8 µM [inhibitor, single point]"
12,O=C(NCc1ccccc1)C(c1ccccc1)N(Cc1ccc2c(c1)OCO2)C(=O)Cc1cccs1 (centres undefined),active: 12.6 µM
13,COc1ccccc1NC(=O)CSC1=Nc2ccccc2C2=NC(CCC(=O)NCc3ccco3)C(=O)N12 (centres undefined),"inconclusive: 35.5 µM [activator, single point]"
14,O=C(NN=C1CCCC1)c1ccn[nH]1,"inconclusive: 3.66 µM [activator, single point]"
15,CC(C)(O)C#Cc1ccc(C(=O)Nc2ccc3c(c2)OCO3)s1,"inconclusive: 14.1 µM [activator, single point]"
16,CN1c2ccc(C=O)c3c(C=O)ccc(c23)N(C)C1(C)C,"inconclusive: 35.5 µM [inhibitor, single point]"
17,Cc1cccc(NC(=O)N2CCc3ccccc3C2)c1C,inactive
18,COc1ccccc1C1CCN(c2cc(O)ccc2[N+](=O)[O-])CC1,"inconclusive: 12.6 µM [inhibitor, partial curve, poor fit]"
19,COc1cc2c(cc1OC)C1=NC(=O)CN1C(SCc1ccccc1C)=N2,inactive
20,CC1(C)CC(=O)C(N=Nc2ccc3ncsc3c2)=C(O)C1,"inconclusive: 35.5 µM [activator, single point]"
